Measurements reported in PubChem BioAssay AID1259308 (NCATS, 2017).
Assay: 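Candidate targets for better recombinant protein yield in mammalian cells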 (primary screen). Cells: human HEK293 embryonic kidney cells stably expressing firefly luciferase (HEK-CMV-Luc2-Hygro). Reagents: single siRNA against human genes, 0.8 pmol siRNA per well. Duration: 72 h. Detection: 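Luciferase light (ONE-Glo) measured on one replicate plate set and viability (CellTiter-Glo) on the other, scaled to a negative control siRNA, with robust z-scores and luciferase per cell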. Direction: total luciferase, z-score and total luciferase, % of control: higher = more reporter protein produced. Active means: 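An siRNA counts as active if its total luciferase robust z-score exceeds 3; genes with two or more such siRNAs out of three were retested with fresh siRNAs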. Calls: active = raised luciferase; inactive = no rise.
The whole screen tested about 59,000 reagents; this is a random part of them. In the full data, about 1,510 (2.6%) are marked active. 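Calls use total luciferase alone and ignore viability, so some active siRNAs may act by altering cell number.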 Unmarked entries are inactive. Reagents against one gene are numbered here. Further read-outs or replicates are left out here. Reagent sequences are not shown.

no.	gene symbol	reagent	total luciferase, z-score	total luciferase, % of control
1	FAAP100 (FA core complex associated protein 100)	1	-0.172	78.5
2	FAAP100 (FA core complex associated protein 100)	2	1.43	110
3	FAAP100 (FA core complex associated protein 100)	3	-1.22	57.7
4	HTR4 (5-hydroxytryptamine receptor 4)	1	-0.322	75.5
5	HTR4 (5-hydroxytryptamine receptor 4)	2	1.17	105
6	HTR4 (5-hydroxytryptamine receptor 4)	3	-0.197	78
7	USP53 (ubiquitin specific peptidase 53)	1	0.109	84.1
8	USP53 (ubiquitin specific peptidase 53)	2	-0.374	74.5
9	USP53 (ubiquitin specific peptidase 53)	3	-0.119	79.5
10	PCCA (propionyl-CoA carboxylase subunit alpha)	1	0.767	97.1
11	PCCA (propionyl-CoA carboxylase subunit alpha)	2	0.776	97.3
12	PCCA (propionyl-CoA carboxylase subunit alpha)	3	-0.699	68
13	TRIM10 (tripartite motif containing 10)	1	0.308	88
14	TRIM10 (tripartite motif containing 10)	2	1.03	102
15	TRIM10 (tripartite motif containing 10)	3	-0.539	71.2

In a second layout: results already given
{"gene symbol": "USP53 (ubiquitin specific peptidase 53)", "reagent": 3, "total luciferase, z-score": -0.119, "total luciferase, % of control": 79.5}
{"gene symbol": "PCCA (propionyl-CoA carboxylase subunit alpha)", "reagent": 1, "total luciferase, z-score": 0.767, "total luciferase, % of control": 97.1}

The results go on.
no.	gene symbol	reagent	total luciferase, z-score	total luciferase, % of control
16	PCBP4 (poly(rC) binding protein 4)	1	0.467	91.2
17	PCBP4 (poly(rC) binding protein 4)	2	-1.43	53.5
18	PCBP4 (poly(rC) binding protein 4)	3	1.59	114
19	CACNB4 (calcium voltage-gated channel auxiliary subunit beta 4)	1	-0.051	80.9
20	CACNB4 (calcium voltage-gated channel auxiliary subunit beta 4)	2	-0.64	69.2
21	CACNB4 (calcium voltage-gated channel auxiliary subunit beta 4)	3	0.839	98.6
22	TXN2 (thioredoxin 2)	1	-0.218	77.6
23	TXN2 (thioredoxin 2)	2	-2.25	37
24	TXN2 (thioredoxin 2)	3	-1.73	47.4
